Data as given in PubChem BioAssay AID504764 (Drosophila RNAi Screening Center, 2011).

- Aim: 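Knock-downs that raise or lower a Notch target reporter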 (primary screen)
- Cells: Drosophila Kc167 cells
- Knock-down reagent: long dsRNA against Drosophila genes
- Duration: about 5 days (4 days dsRNA, then 24 h after transfection)
- Conditions: transfection of constitutively active membrane-tethered Notch lacking the extracellular domain, read 24 h later
- Read-out: 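Light from a Notch-responsive E(spl)m3 luciferase reporter under active Notch, with control-promoter and no-Notch reporter wells to normalise; raw counts from paired wells a and b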
- Direction: induced reporter light, run 1, well a and induced reporter light, run 1, well b: higher = more light from the Notch target reporter with active Notch; control promoter light, run 1, well a and control promoter light, run 1, well b: higher = more light from the viral control promoter (cell number, transfection, viability); uninduced reporter light, run 1, well a: higher = more light from the Notch target reporter without active Notch
- Active means: 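Wells with low control signal or poorly matching duplicates excluded; duplicates averaged; per source plate, z beyond ±2 for induced/control log2 ratio or beyond ±1.8 for induced/uninduced marks a hit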
- Meaning of the calls: active = modifier hit (raised or lowered Notch signal); inactive = not a hit
In all, the deposit lists about 22,000 reagents; this is a random part of those that have a named target and a result. Over the whole deposit, 403 (1.9%) were called active. 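Unnormalised raw counts per well; ratio z-scores behind the hit calls and whether each hit raises or lowers signal are not deposited.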 Reagents against one gene are numbered here. Names joined by + are all predicted targets of the reagent. Not given: the amount of reagent.

Gene,dsRNA no.,"induced reporter light, run 1, well a","induced reporter light, run 1, well b","control promoter light, run 1, well a","control promoter light, run 1, well b","uninduced reporter light, run 1, well a",call
CG3662,1,1.95e5,1.91e5,1.71e5,2.11e5,18160,inactive
Chpf (Chondroitin polymerizing factor),1,1.74e5,1.13e5,1.83e5,1.74e5,10085,inactive
Chpf (Chondroitin polymerizing factor),2,1.98e5,1.83e5,2.29e5,1.98e5,13890,inactive
galectin,1,1.50e5,1.64e5,1.33e5,1.07e5,11405,inactive
RpS23 (Ribosomal protein S23),1,68545,66535,71225,69005,5345,inactive
CG13308,1,1.80e5,2.04e5,2.47e5,1.96e5,11520,inactive
CG2889,1,1.05e5,1.19e5,1.36e5,1.58e5,7282,inactive
CG12861,1,91170,95615,94925,91625,8560,inactive
CG1698,1,1.75e5,1.60e5,1.52e5,1.41e5,15400,inactive
FeCH (Ferrochelatase),1,2.00e5,2.13e5,2.42e5,2.27e5,13160,inactive
CG30114,1,1.06e5,1.11e5,1.47e5,1.25e5,8350,inactive
CG13306,1,2.34e5,2.31e5,2.67e5,2.48e5,11055,inactive
CG31516,1,2.46e5,2.47e5,3.20e5,3.29e5,19455,inactive
CG5376,1,1.76e5,1.58e5,1.53e5,1.71e5,13865,inactive
Cisd2 (CDGSH iron sulfur domain 2),1,1.42e5,1.59e5,2.02e5,1.97e5,13482,inactive
CG9926,1,1.19e5,1.03e5,1.01e5,81580,9720,inactive
Hey (Hairy/E(spl)-related with YRPW motif),1,9235,8540,11445,10130,2982,inactive
CG33770,1,1.21e5,1.49e5,1.45e5,1.24e5,8525,inactive
Obp59a (Odorant-binding protein 59a),1,2.08e5,1.49e5,1.76e5,1.42e5,13125,inactive
eIF2Bgamma (eukaryotic translation initiation factor 2B subunit gamma),1,1.08e5,1.50e5,2.23e5,2.29e5,10780,inactive
CG13893,1,1.67e5,1.89e5,2.97e5,1.80e5,10455,inactive
clos (closca),1,1.81e5,1.71e5,1.74e5,1.77e5,13885,inactive
clos (closca),2,1.59e5,1.50e5,2.12e5,1.82e5,14070,inactive
clos (closca),3,1.32e5,1.81e5,2.10e5,2.27e5,13188,inactive
CG13930,1,1.72e5,1.41e5,2.03e5,2.12e5,12460,inactive
Ugt37E1 (UDP-glycosyltransferase family 37 member E1),1,1.35e5,1.56e5,1.50e5,1.93e5,12070,inactive
CG15155,1,1.34e5,1.30e5,1.39e5,1.46e5,10060,inactive
CG8349,1,1.27e5,1.51e5,1.22e5,1.86e5,17255,inactive
Tsp2A (Tetraspanin 2A),1,1.28e5,1.31e5,2.30e5,2.40e5,9360,inactive
CG18810,1,48710,50205,52505,47065,2555,inactive
JIL-1 (JIL-1 kinase),1,1.16e5,87260,56210,27485,8125,inactive
CG15376 (retired record),1,1.70e5,1.60e5,2.34e5,3.02e5,9960,inactive
CG16953,1,41660,41265,45480,50610,4720,inactive
CG7668,1,1.06e5,1.40e5,73740,73145,7615,inactive
Ocrl (Oculocerebrorenal syndrome of Lowe),1,1.72e5,1.91e5,2.60e5,2.63e5,12945,inactive
CG4860,1,1.45e5,1.33e5,1.02e5,1.14e5,10620,inactive
Ugt304A1 (UDP-glycosyltransferase family 304 member A1),1,96395,86170,84675,77410,4590,inactive
Cog6 (Component of oligomeric golgi complex 6),1,2.09e5,1.90e5,1.68e5,1.65e5,15355,inactive
CG32299 + CG32298,1,1.94e5,1.73e5,2.08e5,2.28e5,13975,inactive
dpr15 (defective proboscis extension response 15),1,1.46e5,1.24e5,1.88e5,1.84e5,11420,inactive
dpr15 (defective proboscis extension response 15),2,58780,61965,58500,51095,12918,inactive
dpr15 (defective proboscis extension response 15),3,96365,78990,80035,69365,5045,inactive
CG34265,1,2.38e5,2.28e5,2.55e5,2.75e5,16250,inactive
CG3251,1,1.74e5,2.20e5,2.49e5,2.26e5,14575,inactive
alphaTub84B (alpha-Tubulin at 84B),1,29015,23200,25400,23555,2910,inactive
CG5355,1,2.03e5,2.31e5,1.74e5,2.05e5,19900,inactive
Corin,1,2.17e5,1.64e5,2.32e5,2.13e5,16090,inactive
rnh1 (ribonuclease H1),1,1.67e5,1.92e5,2.27e5,1.87e5,14782,inactive
Snx17 (Sorting nexin 17),1,1.85e5,1.73e5,1.99e5,1.78e5,12950,inactive
ATP6AP2 (ATPase H+ transporting accessory protein 2),1,86850,1.25e5,1.02e5,1.22e5,4815,inactive
cmet (CENP-meta),1,1.09e5,1.43e5,64985,84585,17265,inactive
CG32816,1,51420,68420,82455,83365,5530,inactive
pic (piccolo),1,66740,64335,43210,42810,6742,inactive
CG13365,1,1.42e5,1.37e5,2.14e5,2.24e5,8995,inactive
GILT1 (Gamma-interferon-inducible lysosomal thiol reductase 1),1,1.58e5,1.41e5,1.15e5,95220,9210,inactive
CG17777,1,77015,1.01e5,1.49e5,1.50e5,6570,inactive
CG32086,1,1.33e5,1.29e5,2.39e5,2.23e5,10432,inactive
CG5861,1,1.53e5,1.65e5,2.31e5,2.27e5,14975,inactive
"SerRS-m (Seryl-tRNA synthetase, mitochondrial)",1,2.51e5,2.53e5,2.37e5,2.13e5,20795,inactive
snRNA:U1:95Cc (small nuclear RNA U1 at 95C c),1,21055,22382,12455,12145,4270,inactive
ab (abrupt),1,11700,16440,7795,6568,5750,inactive
CG34305,1,2.03e5,2.06e5,3.19e5,3.08e5,17360,inactive
RpS10b (Ribosomal protein S10b),1,94955,84640,1.35e5,1.83e5,10780,active
Ubr3 (Ubr3 ubiquitin ligase),1,1.70e5,1.59e5,1.87e5,2.25e5,11745,inactive
Ubr3 (Ubr3 ubiquitin ligase),2,1.35e5,1.53e5,3.30e5,3.49e5,11215,inactive
